# Experimental data published in the supplement of paper PMC6331611.
# ± gives the standard deviation of the averaged measurements. Whole data set: some 1,600 compounds, median “normalized intracellular growth (luminescence, IQM-normalized) in RAW264.7 macrophages” near 1, cut for the lowest 2% near 0.43. The list shows a part of the results.
# Test system: Salmonella enterica serovar Typhimurium SL1344
# Experiment: normalized intracellular growth (luminescence, IQM-normalized) in RAW264.7 macrophages (fraction of plate interquartile mean); higher = more bacterial growth (less inhibition)
# Conditions: 10 µM
SMILES,normalized intracellular growth (time point: T3 (3 h)),normalized intracellular growth (time point: Tfinal (~6 h))
COc1ccc(C2CNC(=O)C2)cc1OC1CCCC1 (centres undefined),0.991 ± 0.071,0.959 ± 0.33
NC(=O)C(c1ccccc1)(c1ccccc1)[C@@H]1CCN(CCc2ccc3c(c2)CCO3)C1,1.07 ± 0.046,0.992 ± 0.29
CCCNCC(O)COc1ccccc1C(=O)CCc1ccccc1 (centres undefined),1.04 ± 0.066,1.03 ± 0.044
COc1ccccc1OCC(O)CN1CCN(CC(=O)Nc2c(C)cccc2C)CC1 (centres undefined),1.01 ± 0.034,1.05 ± 0.033
C[C@H]1C[C@@H]2[C@H]([C@@H](O)C[C@@]3(C)[C@H]2CC[C@]3(O)C(=O)CO)[C@@]2(C)C=CC(=O)C=C12,1.07 ± 0.02,0.417 ± 0.054
CC(C)NCC(O)c1ccc2ccccc2c1 (centres undefined),0.937 ± 0.052,1.07 ± 0.029
CC(=O)O[C@]1(C(C)=O)CC[C@H]2[C@@H]3C[C@H](C)C4=CC(=O)CC[C@]4(C)[C@H]3CC[C@@]21C,1 ± 0.042,0.941 ± 0.11
O=C(O)c1cc(-c2ccccc2)nc2ccccc12,0.954 ± 0.013,0.688 ± 0.24
CN(C)c1nc(N(C)C)nc(N(C)C)n1,0.966 ± 0.055,0.963 ± 0.051
CN(C)[C@@H]1C(O)=C(C(=O)NCN2CCCC2)C(=O)[C@@]2(O)C(O)=C3C(=O)c4c(O)cccc4[C@@](C)(O)[C@H]3C[C@@H]12,0.973 ± 0.013,0.683 ± 0.41
Cc1c(N(C)CS(=O)(=O)O)c(=O)n(-c2ccccc2)n1C,0.987 ± 0.015,1.15 ± 0.081
CC(NCCC(c1ccccc1)c1ccccc1)c1ccccc1 (centres undefined),0.867 ± 0.046,0.974 ± 0.23
CCN(CC)CCc1nc(-c2ccccc2)no1,1 ± 0.024,0.786 ± 0.12
CCc1cn([C@H]2C[C@H](O)[C@@H](CO)O2)c(=O)[nH]c1=O,1.09 ± 0.034,0.868 ± 0.01
O=S(=O)(O)NC1CCCCC1,0.688 ± 0.097,0.748 ± 0.044
O=c1oc2ccccc2c(O)c1Cc1c(O)c2ccccc2oc1=O,0.9837 ± 0.0082,0.993 ± 0.02
CN1CCN(CCCN2c3ccccc3Sc3ccc(Cl)cc32)CC1,0.985 ± 0.021,0.921 ± 0.043
C[C@H](CCC(=O)O)[C@H]1CC[C@H]2[C@@H]3[C@H](O)C[C@@H]4C[C@H](O)CC[C@]4(C)[C@H]3CC[C@]12C,1.12 ± 0.032,1.07 ± 0.04
NCC(O)CC(=O)O (centres undefined),0.966 ± 0.067,1.03 ± 0.12
CC(=O)OCC(CCn1cnc2cnc(N)nc21)COC(C)=O,1 ± 0.027,1.08 ± 0.14
C1CNCCN1,0.991 ± 0.091,0.655 ± 0.077
COc1c2occc2c(OC)c2c(=O)cc(C)oc12,1.066 ± 0.0025,1.04 ± 0.12

# Three entries already listed, sorted by molecular weight, rising:
SMILES,normalized intracellular growth (time point: T3 (3 h)),normalized intracellular growth (time point: Tfinal (~6 h))
C1CNCCN1,0.991 ± 0.091,0.655 ± 0.077
C[C@H](CCC(=O)O)[C@H]1CC[C@H]2[C@@H]3[C@H](O)C[C@@H]4C[C@H](O)CC[C@]4(C)[C@H]3CC[C@]12C,1.12 ± 0.032,1.07 ± 0.04
NC(=O)C(c1ccccc1)(c1ccccc1)[C@@H]1CCN(CCc2ccc3c(c2)CCO3)C1,1.07 ± 0.046,0.992 ± 0.29

# Following part.

SMILES,normalized intracellular growth (time point: T3 (3 h)),normalized intracellular growth (time point: Tfinal (~6 h))
CC[C@H](C)C(=O)O[C@H]1CCC=C2C=C[C@H](C)[C@H](CC[C@@H]3C[C@@H](O)CC(=O)O3)[C@H]21,0.976 ± 0.08,0.837 ± 0.19
Nc1cc(C(Cl)=C(Cl)Cl)c(S(N)(=O)=O)cc1S(N)(=O)=O,1.03 ± 0.061,1.12 ± 0.16
Cc1nnc(NS(=O)(=O)c2ccc(N)cc2)s1,1.02 ± 0.04,1.01 ± 0.021
O=C1C2CC3CC1CC(O)(C3)C2,1 ± 0.017,1.06 ± 0.065
C1CCN2C[C@@H]3C[C@@H](CN4CCCC[C@@H]34)[C@H]2C1,0.991 ± 0.035,1.08 ± 0.04
CC1CC(OC(=O)C(O)c2ccccc2)CC(C)(C)N1C (centres undefined),0.882 ± 0.088,0.983 ± 0.09
O=C(O)CCCc1ccccc1,0.951 ± 0.023,1.11 ± 0.078
Cc1cnc(NC(=O)C2=C(O)c3ccccc3S(=O)(=O)N2C)s1,1.03 ± 0.041,1.06 ± 0.12
CC1(C)O[C@@H]2C[C@H]3[C@@H]4CCC5=CC(=O)C=C[C@]5(C)[C@@]4(F)[C@@H](O)C[C@]3(C)[C@]2(C(=O)CO)O1,0.848 ± 0.021,1.33 ± 0.069
OC1(c2ccc(Cl)c(C(F)(F)F)c2)CCN(CCCC(c2ccc(F)cc2)c2ccc(F)cc2)CC1,0.949 ± 0.056,1.12 ± 0.18
C[C@@H]1C[C@H]2[C@@H]3CCC4=CC(=O)C=C[C@]4(C)[C@@]3(F)[C@@H](O)C[C@]2(C)[C@@]1(O)C(=O)CO,1 ± 0.062,0.99 ± 0.075
O=C(O)COC(=O)Cc1ccccc1Nc1c(Cl)cccc1Cl,1.13 ± 0.02,0.853 ± 0.024
CCn1nc(C(=O)O)c(=O)c2cc3c(cc21)OCO3,0.833 ± 0.03,0.705 ± 0.046
Cc1cc(/C=C/c2ccc3cc(N(C)C)ccc3[n+]2C)c(C)n1-c1ccccc1,1.05 ± 0.03,1.07 ± 0.044
CC(C)(Oc1ccc(C(=O)c2ccc(Cl)cc2)cc1)C(=O)O,0.98 ± 0.0072,1.07 ± 0.11
CCCCNc1ccc(C(=O)OCCOCCOCCOCCOCCOCCOCCOCCOCCOC)cc1,0.91 ± 0.039,0.9637 ± 0.006
CCN1CCN(C(=O)N[C@@H](C(=O)N[C@@H]2C(=O)N3C(C(=O)O)=C(CSc4nnnn4C)CS[C@H]23)c2ccc(O)cc2)C(=O)C1=O,0.9924 ± 0.0029,1.08 ± 0.021
CN(C)CCOc1ccc(/C(=C(/CCCl)c2ccccc2)c2ccccc2)cc1,0.921 ± 0.0094,0.791 ± 0.13
Cc1ccc(Cl)c(Nc2ccccc2C(=O)O)c1Cl,0.756 ± 0.089,0.786 ± 0.19
CC1=Nc2ccc(Cl)cc2S(=O)(=O)N1,1.02 ± 0.014,0.976 ± 0.041
CC(C(=O)O)c1ccc(N2Cc3ccccc3C2=O)cc1 (centres undefined),1.02 ± 0.02,0.95 ± 0.024
Oc1ccc(OCc2ccccc2)cc1,1.17 ± 0.058,0.8 ± 0.3

SMILES,normalized intracellular growth (time point: T3 (3 h)),normalized intracellular growth (time point: Tfinal (~6 h))
C[C@H]1C[C@H]2[C@@H]3CCC4=CC(=O)C=C[C@]4(C)[C@@]3(F)[C@@H](O)C[C@]2(C)[C@@]1(O)C(=O)CO,1.05 ± 0.022,1.04 ± 0.079
CC(=O)OC1CC2CCC1(C)C2(C)C (centres undefined),1.011 ± 0.01,1.14 ± 0.018
O=c1cc[nH]c(=S)[nH]1,1.03 ± 0.029,1.14 ± 0.035
O=C1CC2(CCCC2)CC(=O)N1CCCCN1CCN(c2ncccn2)CC1,1 ± 0.081,0.987 ± 0.24
CC[C@H]1OC(=O)[C@H](C)[C@@H](O[C@H]2C[C@@](C)(OC)[C@@H](O)[C@H](C)O2)[C@H](C)[C@@H](O[C@@H]2O[C@H](C)C[C@H](N(C)C)[C@H]2O)[C@](C)(O)C[C@@H](C)[C@@H]2N[C@@H](COCCOC)O[C@H]([C@H]2C)[C@]1(C)O,1.04 ± 0.1,1 ± 0.14
CCCCCCCCCCCCCCCC(=O)O[C@@H]1[C@@H](O)[C@@H](O)[C@@H]([C@H](NC(=O)[C@@H]2C[C@@H](CCC)CN2C)[C@H](C)Cl)O[C@@H]1SC,1.035 ± 0.0086,0.763 ± 0.16
Cc1cc(CC(=O)O)n(C)c1C(=O)c1ccc(Cl)cc1,0.997 ± 0.065,0.776 ± 0.078
CC(=O)Nc1ncc([N+](=O)[O-])s1,1.11 ± 0.057,1.12 ± 0.048
CC12CCC(CC1)C(C)(C)O2,1.02 ± 0.024,0.96 ± 0.18
CC(C)C[C@@H]1NC(=O)[C@H](CCCN)NC(=O)[C@H](C(C)C)NC(=O)[C@H](Cc2ccc(O)cc2)N[C@@H](CCC(=O)O)C(=O)N[C@@H](CC(N)=O)C(=O)[C@@H](Cc2ccccc2)NC(=O)[C@H](Cc2ccccc2)NC(=O)[C@@H]2CCCN2C(=O)[C@@H](Cc2ccccc2)NC1=O,0.95 ± 0.055,1 ± 0.064
Nc1ccc2cc3ccc(N)cc3nc2c1,1.15 ± 0.058,1.32 ± 0.085
COc1ccc2cc(C(C)C(=O)O)ccc2c1 (centres undefined),1.04 ± 0.036,1.09 ± 0.089
CCC(=O)c1c(O)cc(O)cc1O,1.02 ± 0.025,1.07 ± 0.15
FC(F)(Cl)C(F)(F)Cl,1.02 ± 0.023,0.675 ± 0.21
CC1Cc2ccccc2N1NC(=O)c1ccc(Cl)c(S(N)(=O)=O)c1 (centres undefined),0.977 ± 0.021,1.15 ± 0.0069
Nc1ccc(S(=O)(=O)Nc2ccnn2-c2ccccc2)cc1,1 ± 0.049,1.01 ± 0.062
O=C(NCC(O)CO)c1c(I)c(C(=O)NCC(O)CO)c(I)c(N(CCO)C(=O)CO)c1I (centres undefined),0.955 ± 0.082,1.07 ± 0.16
CO/N=C(\C(=O)N[C@@H]1C(=O)N2C(C(=O)O)=C(COC(N)=O)CS[C@H]12)c1ccco1,0.994 ± 0.043,0.732 ± 0.083
O=C1CN2Cc3c(ccc(Cl)c3Cl)N=C2N1,1.05 ± 0.069,1.08 ± 0.17
CC(C)NCC(O)COc1ccc(COCCOC(C)C)cc1 (centres undefined),0.946 ± 0.013,1.16 ± 0.083
Nc1nc(Cl)nc2c1ncn2[C@@H]1O[C@H](CO)[C@@H](O)[C@@H]1F,1.01 ± 0.071,1.03 ± 0.13
CC(=O)N[C@@H](CC(C)C)C(=O)O,0.9533 ± 0.0091,1.1 ± 0.13

SMILES,normalized intracellular growth (time point: T3 (3 h)),normalized intracellular growth (time point: Tfinal (~6 h))
Nc1nc(=O)c2nc(CNc3ccc(C(=O)N[C@@H](CCC(=O)O)C(=O)O)cc3)cnc2[nH]1,1.04 ± 0.053,0.886 ± 0.083
O=C([O-])[C@H]1/C(=C/CO)O[C@@H]2CC(=O)N21.[Li+],1.02 ± 0.099,0.812 ± 0.11
CC[C@H]1OC(=O)[C@H](C)[C@@H](O[C@H]2C[C@@](C)(OC)[C@@H](O)[C@H](C)O2)[C@H](C)[C@@H](O[C@@H]2O[C@H](C)C[C@H](N(C)C)[C@H]2O)[C@](C)(O)C[C@@H](C)/C(=N\OCOCCOC)[C@H](C)[C@@H](O)[C@]1(C)O,1.06 ± 0.03,0.825 ± 0.42
NCCC[C@H](N)C(=O)O,0.972 ± 0.048,0.966 ± 0.13
NC(=O)N1c2ccccc2C=Cc2ccccc21,1.05 ± 0.084,1.05 ± 0.092
CN(C)CCN(Cc1cccs1)c1ccccn1,1.03 ± 0.066,1.01 ± 0.071
CC(=O)OCC(COC(C)=O)OC(C)=O,0.975 ± 0.09,1 ± 0.1
Cc1scc2c1N(C(=O)CN1CCN(C)CC1)c1ccccc1NC2=O,1.08 ± 0.067,0.99 ± 0.22
C=C1c2cccc(O)c2C(=O)C2=C(O)[C@]3(O)C(=O)C(C(N)=O)=C(O)[C@@H](N(C)C)[C@@H]3[C@@H](O)[C@H]12,0.979 ± 0.029,0.103 ± 0.039
c1ccc(C2CN3CCSC3=N2)cc1 (centres undefined),1.03 ± 0.029,0.652 ± 0.033
OC[C@H]1O[C@H]([S-])[C@H](O)[C@@H](O)[C@@H]1O.[Au+],0.978 ± 0.019,1 ± 0.2
O=C(NCc1ccccc1)OCCO,1.24 ± 0.071,1.33 ± 0.083
Cc1nc2ccccc2n1Cc1ccc(Cl)cc1,1.02 ± 0.042,0.455 ± 0.14
Cc1cc(=O)oc2cc(O)ccc12,1.03 ± 0.08,1.03 ± 0.098
CC(COc1ccccc1)N(CCCl)Cc1ccccc1 (centres undefined),0.929 ± 0.017,0.92 ± 0.074
Nc1ncn([C@@H]2O[C@H](CO)[C@@H](O)[C@H]2O)c(=O)n1,0.951 ± 0.029,0.154 ± 0.087
CCCNC(C)C(=O)Nc1ccccc1C (centres undefined),1.04 ± 0.03,0.794 ± 0.45
COc1ccc(CN(CCN(C)C)c2ccccn2)cc1,1.04 ± 0.026,1.01 ± 0.0046
CC(=O)c1ccc(S(=O)(=O)NC(=O)NC2CCCCC2)cc1,1.1 ± 0.022,1.18 ± 0.15
CCOC(=O)OC(C)OC(=O)[C@@H]1N2C(=O)[C@@H](NC(=O)[C@H](N)c3ccccc3)[C@H]2SC1(C)C (some centres undefined),1.03 ± 0.053,0.978 ± 0.12
CCOC(=O)[C@H](CCc1ccccc1)N[C@H]1CCc2ccccc2N(CC(=O)O)C1=O,0.901 ± 0.1,0.85 ± 0.18
